PubChem BioAssay AID1487 (National Center for Advancing Translational Sciences (NCATS), 2009)
Where “and” joins values, the source holds several entries; their conditions need not be identical. Equal entries are not always repeated. This is one part of the list. Shown are side measurements of this screen, not its main read-out; they come without a call. Compounds called inactive in the main read-out are mostly missing here. Potencies come from curve fits of mixed quality, noted in brackets.

Assay: qHTS Assay for Modulators of Lamin A Splicing
Settings: HeLa LMNA splicing GFP/RFP minigene ratio, 48 h
How it was run: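 S3 HeLa stable clones carrying a lamin A-EGFP splicing minigene plus DsRed2 were seeded at 600 cells/well in Opti-MEM with 2% FBS, pin-dosed and incubated 48 h at 37°C. Acumen cytometry (488 nm) gave the GFP/RFP total-intensity ratio.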

[1] = measured here: RFP viability control channel
[2] = measured here: GFP splicing reporter channel

Compound | AC50 [1] | AC50 [2]
N#Cc1nc(-c2ccco2)oc1NCc1ccco1 | 15.8 µM [rising, partial curve, poor fit] | 
C[C@]12C[C@H](O)C3[C@@H](CCC4=CC(=O)CC[C@@]43C)[C@@H]1CC[C@@H]2C(=O)CO (stereo partly specified) |  | 7.94 µM [rising, partial curve]
CCCC(C)NC(=O)c1ccc2[nH]c3c(c2c1)CC(C)CC3 (stereo unspecified) | 10 µM [rising, partial curve, poor fit] | 11.2 µM [rising, single point]
CCOC(=O)Cn1c(-c2nonc2NC(=O)c2ccccc2F)nc2ccccc21 | 2.24 µM [rising, full curve] | 0.398 µM [falling, partial curve, poor fit]
C=CCN1C(=O)CN=C1Nc1cc(C)cc(C)c1 |  | 3.55 µM [rising, partial curve]
CN1C2=NCCN2C(=O)c2cc(Cl)ccc21 |  | 0.141 µM [rising, full curve, poor fit]
CC(C)n1c(=NC(=O)c2ccco2)c(C#N)cc2c(=O)n3ccccc3cc21 | 35.5 µM [falling, single point] | 
CCOC(=O)C1CCN(c2ncnc3c2c(-c2ccccc2)cn3-c2ccc(C)c(Cl)c2)CC1 |  | 0.0141 µM [falling, full curve, poor fit]
O=c1[nH]c(SCc2cccc(Cl)c2)nc2c1CCCC2 | 14.1 µM [rising, single point] | 
COCCNc1nc(SCC(=O)N2CCN(c3ccccc3OC)CC2)nc2ccccc12 |  | 35.5 µM [rising, single point]
O=C1c2ccccc2C(Nc2ccc(S(=O)(=O)N3CCCCCC3)cc2)N1Cc1ccco1 (stereo unspecified) | 35.5 µM [rising, single point] | 
CCOC(=O)Cn1c2c(c(=N)c3c1CCC3)CCCC2 | 12.6 µM [rising, single point] | 
O=C1NC(=O)C(c2ccccc2)(c2ccccc2)N1 | 22.4 µM [falling, partial curve, poor fit] and 0.794 nM [rising, full curve, poor fit] | 35.5 µM [rising, single point]
CCOC(=O)c1c(NC(=O)CSc2nc3cc(Cl)ccc3s2)sc(C(C)=O)c1C | 12.6 µM [rising, partial curve] | 8.91 µM [rising, partial curve]
O=S(=O)(c1ccccc1Cl)N1CCCC1c1nc(-c2cccc(Cl)c2)no1 (stereo unspecified) | 31.6 µM [rising, single point] | 
COc1ccc(CCNC(=O)C/C(C)=N/NC(=O)C23CC4CC(CC(C4)C2)C3)cc1OC | 35.5 µM [falling, single point] | 
C=CCN1c2ccccc2[C@]23C[C@@H](C(=O)OC)N(S(=O)(=O)c4ccc(C#N)cc4)C2=NC(C(=O)OC)=C(C(=O)OC)[C@H]13 |  | 1.26 µM [rising, partial curve]
Cc1ccccc1C(=O)c1c[nH]c(C(=O)NCC2CCCO2)c1 (stereo unspecified) |  | 7.94 µM [falling, partial curve]
COc1ccccc1CNC(=O)c1cc2cc(S(=O)(=O)N3CCCCC3)ccc2n1C |  | 3.16 µM [rising, single point]
COC(=O)c1ccc(C2/C(=C(/O)c3ccc(OC)cc3)C(=O)C(=O)N2Cc2ccco2)cc1 (stereo unspecified) |  | 0.708 µM [rising, partial curve, poor fit]

Compound | AC50 [1] | AC50 [2]
O=C(CSc1nc2c([nH]c3ccccc32)c(=O)n1-c1ccccc1)Nc1ccccc1F | 2 µM [falling, partial curve, poor fit] | 
Cc1nnc(SCC(=O)N2CCN(S(=O)(=O)c3ccccc3)CC2)n1Cc1ccccc1 | 25.1 µM [rising, single point] | 20 µM [rising, single point]
COC(=O)[C@@H]1[C@@H](C)OC(=O)N[C@H]1c1ccccc1 |  | 0.794 µM [falling, partial curve, poor fit]
Cc1ccccc1-c1nn(-c2ccc(F)cc2F)cc1CNCCN(C)C |  | 35.5 µM [falling, single point]
CC[n+]1c(/C=C2/C=C(C)CC(C)(C)C2)sc2ccc(OC)cc21 | 35.5 µM [falling, single point] | 35.5 µM [falling, single point]
CCOc1ccc(-c2nnc(NC3=NCCCCC3)o2)cc1 | 35.5 µM [rising, single point] | 
COc1ccc(N2C3=C(CC4=C2CC(C)(C)CC4=O)C(=O)CC(C)(C)C3)cc1 |  | 35.5 µM [falling, single point]
COc1ccc(Br)cc1CN1CCN(C(=O)c2ccc(OC)c(OC)c2)CC1 | 1.58 µM [falling, partial curve, poor fit] | 
CCN(CC)C(=O)c1sc(NC(=O)c2cccs2)c(C#N)c1C | 1.26 µM [falling, partial curve, poor fit] | 
COC(=O)CSCC(=O)Nc1nnc(-c2cccc(C)c2)s1 | 1.58 µM [falling, partial curve] | 
COc1cccc(-c2nc(N3CC(C)CC(C)C3)c3ccccc3n2)c1O (stereo unspecified) | 14.1 µM [rising, single point] | 12.6 µM [rising, single point]
CN1CCN(C2=Cc3ccc(Cl)cc3Sc3ccc(F)cc32)CC1 | 17.8 µM [rising, single point] | 
N#CCSc1ncnc2ccccc12 |  | 5.01 µM [falling, partial curve]
CCC1=NN(C(=O)c2ccc(Br)cc2)C(O)(c2ccccc2)C1 (stereo unspecified) | 28.2 µM [rising, single point] | 
Cc1cc(OCCOc2cccc3cccnc23)cc(C)c1Cl | 35.5 µM [rising, single point] | 
CCOC(=O)C1=C(c2ccccc2)O/C(=C(/C#N)C(F)(F)F)S1 | 35.5 µM [rising, single point] | 
CN(C)/C=C/C(=O)c1ccc(-n2cccc2)cc1 | 0.0158 µM [falling, full curve, poor fit] | 
CCc1ccc(/C=c2\s/c(=C\C(=O)C(C)(C)C)[nH]c2=O)cc1 | 31.6 µM [rising, single point] | 
Cc1ccc(C(=O)CSc2nnc(CNc3nc(-c4ccccc4)cs3)n2C)cc1 | 12.6 µM [rising, single point] | 
COc1ccc2[nH]cc(CCNc3ncncc3-c3cccnc3)c2c1 |  | 7.94 µM [falling, partial curve]

Taken from above.
Entry for `COc1cccc(-c2nc(N3CC(C)CC(C)C3)c3ccccc3n2)c1O` (stereo unspecified) under AC50 [2]: 12.6 µM [rising, single point]
Entry for `CCOC(=O)C1=C(c2ccccc2)O/C(=C(/C#N)C(F)(F)F)S1` under AC50 [1]: 35.5 µM [rising, single point]

The results go on:

Compound | AC50 [1] | AC50 [2]
CCC(Sc1nc(N)cc(=O)[nH]1)C(=O)Nc1cc(C)on1 (stereo unspecified) |  | 0.447 µM [rising, full curve, poor fit]
O=C(NCc1ccc(F)cc1)C(=O)NCC(c1cccs1)S(=O)(=O)c1cccs1 (stereo unspecified) |  | 3.16 µM [rising, partial curve, poor fit]
COCCNc1cc(NCCOC)c([N+](=O)[O-])cc1[N+](=O)[O-] | 0.0794 µM [rising, full curve, poor fit] | 
CC1(C)CC(=O)C(C(C2=C(O)CC(C)(C)CC2=O)c2cccs2)C(=O)C1 (stereo unspecified) | 12.6 µM [rising, single point] | 12.6 µM [rising, single point]
Cc1ccc(NS(=O)(=O)c2ccc3[nH]c4c(c3c2)CCCCC4)cc1 | 20 µM [falling, single point] | 22.4 µM [falling, single point]
CCC(=O)Nc1nc(C)c(-c2csc(Nc3ccccn3)n2)s1 |  | 35.5 µM [falling, single point]
CCC(=O)Nc1cccc(C(=O)/C=C/c2cc(Br)ccc2OC)c1 | 22.4 µM [falling, single point] | 
CN(C1=C(NC(=O)c2ccc(Cl)cc2)C(=O)c2ccccc2C1=O)c1ccccc1 | 5.01 µM [falling, partial curve] | 31.6 µM [falling, partial curve]
CCOC(=O)C1=C(C)C(c2cccc(Oc3ccccc3)c2)NC(=S)N1 (stereo unspecified) | 25.1 µM [rising, partial curve] | 
Cc1cccc(NCC(=O)N/N=C/c2cccc(Br)c2)c1 |  | 12.6 µM [falling, partial curve]
O=C(COC(=O)c1cccc2c1C(=O)c1ccccc1C2=O)NC1CCCCC1 | 28.2 µM [rising, single point] | 
Cc1nnc(-c2cccc(Br)c2)c2cn(-c3ccc(Br)cc3)nc12 | 20 µM [falling, single point] | 14.1 µM [falling, single point]
Cc1cc(SCC(=O)N2CCCC2)nc2ccccc12 | 31.6 µM [rising, single point] | 20 µM [rising, partial curve]
Cn1c(=O)c(C(=O)COc2ccc(F)cc2Cl)c(N)n(Cc2ccccc2)c1=O | 25.1 µM [rising, single point] | 
O=C(Oc1c(CN2CCOCC2)cc(Cl)c2cccnc12)c1cccs1 | 7.94 µM [falling, partial curve] | 10 µM [falling, partial curve]
CCc1nnc(NC(=O)CSc2nnc(-c3ccccc3O)n2-c2ccc(C)cc2)s1 |  | 7.08 µM [falling, single point]
NS(=O)(=O)c1cnccc1Nc1ccc(Cl)c(Cl)c1 | 10 µM [rising, partial curve] | 
CCOC(=O)c1cnc2c(c(C)nn2C)c1Oc1ccccc1F | 11.2 µM [falling, partial curve] | 
